Measurements as given in article PMC4999599.
For at least one entry, the source does not settle the construct or the ends of the probe. For part of these data: The comparison behind a weaker result is the experiment's own reference, which may not be listed here. For part of these data: At least one verdict was read from the data and is not stated in words by the source.

How the values were obtained:
[1] = system: GST-PcVelA1-256 (Penicillium chrysogenum); assay: EMSA; conditions: EMSA: 3.5-7.0 fmol probe, 2 µl binding buffer (250 mM Tris-HCl pH 8.0, 1 M KCl, 50% glycerol) in 20 µl (about 25 mM Tris, 100 mM KCl, 5% glycerol), 1 µg poly(dI-dC); recombinant protein; protein details: GST; label: 5'-32P
[2] = system: GST-PcVelA full length (Penicillium chrysogenum); assay: EMSA; conditions: EMSA: 3.5-7.0 fmol probe, 2 µl binding buffer (250 mM Tris-HCl pH 8.0, 1 M KCl, 50% glycerol) in 20 µl (about 25 mM Tris, 100 mM KCl, 5% glycerol), 1 µg poly(dI-dC); recombinant protein; protein details: GST; label: 5'-32P

Row | Sequence | binding result [1] | binding result [2]
1 | TAGCGTCATTTATTTTTTTCCTTCAGAGTTTTTCCCTCTTCTTCGGAGT (double strand) [PcLlmA_2_m] | binds more weakly | 
2 | TAGCGTCATTTATTTTTTTCTTCCAAGGTTTTTCCCTCTTCTTCGGAGT (double strand) [PcLlmA_2] | binds | binds
3 | TCCGACAGCCTGGTACGGGAAACCTTGGAACCCATTCCAAATCGGTCTG (double strand) [PcLlmA_4] | binds | binds
4 | TCCGACAGCCTGGTACGGGAAACTCTGAAGCCCATTCCAAATCGGTCTG (double strand) [PcLlmA_4_m] | binds more weakly | 
